Laboratory results: PubChem BioAssay AID652243 (Drosophila RNAi Screening Center, 2013)
The screen tested about 24,000 reagents; below is a random part of those with a known target gene and a result. Of all reagents, 246 (1%) were called active. 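Plates not normalised; calls are printed but the firefly/Renilla ratio behind them is not deposited; fold cut for lowering reported inconsistently.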 Raw values vary from plate to plate and are shown uncorrected. A plus sign joins genes that one reagent is predicted to hit. Not stated in the record: the amount of reagent.

Assay: 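Fly genes required for human androgen receptor driven transcription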 (primary screen)
System: Drosophila S2R+ cells
Reagent: long dsRNA against Drosophila genes
Time to read-out: 72 h (48 h, then 24 h hormone)
Challenge: synthetic androgen R1881 at 10 nM for 24 h
Measurement: 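Firefly light from an androgen-responsive reporter and Renilla control light per well, raw and unnormalised, for each of two replicates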
Scale: firefly reporter light: higher = more light from androgen-responsive reporter; Renilla control light: higher = more constitutive control signal (cell number, transfection)
Hit rule: 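Hit when the log firefly-to-Renilla ratio dropped or increased by a fixed fold versus the mean of GFP or LacZ controls across duplicate plates; lowering cut given as 1.5 and as 3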
Meaning of the calls: active = hit: reporter lowered or raised; inactive = no hit

| predicted target | DRSC id | firefly reporter light, replicate 1 | firefly reporter light, replicate 2 | Renilla control light, replicate 1 | Renilla control light, replicate 2 | Call |
| --- | --- | --- | --- | --- | --- | --- |
| CG31546 | DRSC12317 | 22970 | 28965 | 2.38e5 | 1.88e5 | inactive |
| CG31546 | DRSC25825 | 3.66e5 | 3.04e5 | 8.36e5 | 5.61e5 | inactive |
| yellow-e3 | DRSC15170 | 91171 | 1.13e5 | 1.52e6 | 2.36e6 | inactive |
| Ppt2 | DRSC02786 | 1.15e6 | 1.66e6 | 2.71e6 | 3.07e6 | inactive |
| Ppt2 | DRSC26027 | 5.40e5 | 5.08e5 | 6.97e5 | 7.66e5 | inactive |
| CG14646 | DRSC12232 | 3.66e5 | 3.64e5 | 3.10e6 | 3.01e6 | inactive |
| CG14646 | DRSC21316 | 9.01e5 | 6.78e5 | 1.74e6 | 1.28e6 | inactive |
| CG15706 | DRSC06577 | 33951 | 34192 | 5.19e5 | 5.19e5 | inactive |
| Clc | DRSC11116 | 23931 | 57618 | 3.07e5 | 5.00e5 | inactive |
| Clc | DRSC25617 | 8.58e5 | 5.56e5 | 7.57e5 | 5.70e5 | inactive |
| CG9593 | DRSC16508 | 1.08e5 | 1.79e5 | 2.15e6 | 2.22e6 | inactive |
| CG12971 | DRSC11681 | 2.04e5 | 1.58e5 | 2.57e6 | 2.40e6 | inactive |
| CG12971 | DRSC23893 | 6.78e5 | 8.11e5 | 1.27e6 | 1.31e6 | inactive |
| Atg7 | DRSC05741 | 1.86e5 | 1.05e5 | 5.86e5 | 2.27e5 | inactive |
| Atg7 | DRSC06937 | 1.20e5 | 1.17e5 | 1.61e6 | 1.36e6 | inactive |
| Osi17 | DRSC12284 | 90896 | 1.22e5 | 1.81e6 | 1.78e6 | inactive |
| CG8461 | DRSC16424 | 1.03e5 | 1.23e5 | 5.79e5 | 6.92e5 | inactive |
| CG2712 | DRSC18589 | 1.41e5 | 69747 | 9.64e5 | 6.33e5 | inactive |
| CG9395 | DRSC03218 | 2.16e5 | 1.91e5 | 1.24e6 | 1.54e6 | inactive |
| CG9395 | DRSC26576 | 3.26e5 | 2.41e5 | 6.94e5 | 6.12e5 | inactive |
| Rsph4a | DRSC04338 | 9.09e5 | 7.13e5 | 7.86e5 | 1.02e6 | inactive |
| Rsph4a | DRSC28287 | 8.82e5 | 1.25e6 | 1.33e6 | 2.02e6 | inactive |
| Indy-2 + CG33934 | DRSC15685 | 1.09e5 | 78413 | 7.17e5 | 6.99e5 | inactive |
| Indy-2 + CG33934 | DRSC15686 | 3.36e5 | 3.32e5 | 2.60e6 | 2.94e6 | inactive |
| DIP-gamma | DRSC14873 | 1.38e5 | 1.16e5 | 1.05e6 | 8.87e5 | inactive |
| shf | DRSC18283 | 1.40e5 | 1.68e5 | 2.44e6 | 2.66e6 | inactive |
| shf | DRSC24224 | 5.20e5 | 3.25e5 | 1.08e6 | 4.98e5 | inactive |
| shf | DRSC38947 | 8.31e5 | 6.62e5 | 1.78e6 | 1.47e6 | inactive |
| Trm7-34 | DRSC16171 | 5.94e5 | 8.38e5 | 3.74e6 | 4.25e6 | inactive |
| Ugt37A2 | DRSC15861 | 2.03e5 | 1.70e5 | 2.36e6 | 2.06e6 | inactive |
| Ugt37A2 | DRSC29967 | 4.55e5 | 3.56e5 | 1.36e6 | 1.00e6 | inactive |
| Flo1 | DRSC07427 | 1.21e6 | 1.24e6 | 2.16e6 | 2.65e6 | inactive |
| Flo1 | DRSC28122 | 9.52e5 | 8.26e5 | 1.62e6 | 1.34e6 | inactive |
| CG2955 | DRSC00552 | 6.94e5 | 8.55e5 | 1.98e6 | 1.80e6 | inactive |

6 entries from above in another layout.
Ppt2 [DRSC26027] — firefly reporter light, replicate 1 = 5.40e5; firefly reporter light, replicate 2 = 5.08e5; Renilla control light, replicate 1 = 6.97e5; Renilla control light, replicate 2 = 7.66e5; Call = inactive
CG14646 [DRSC12232] — firefly reporter light, replicate 1 = 3.66e5; firefly reporter light, replicate 2 = 3.64e5; Renilla control light, replicate 1 = 3.10e6; Renilla control light, replicate 2 = 3.01e6; Call = inactive
CG14646 [DRSC21316] — firefly reporter light, replicate 1 = 9.01e5; firefly reporter light, replicate 2 = 6.78e5; Renilla control light, replicate 1 = 1.74e6; Renilla control light, replicate 2 = 1.28e6; Call = inactive
CG15706 [DRSC06577] — firefly reporter light, replicate 1 = 33951; firefly reporter light, replicate 2 = 34192; Renilla control light, replicate 1 = 5.19e5; Renilla control light, replicate 2 = 5.19e5; Call = inactive
Clc [DRSC11116] — firefly reporter light, replicate 1 = 23931; firefly reporter light, replicate 2 = 57618; Renilla control light, replicate 1 = 3.07e5; Renilla control light, replicate 2 = 5.00e5; Call = inactive
Clc [DRSC25617] — firefly reporter light, replicate 1 = 8.58e5; firefly reporter light, replicate 2 = 5.56e5; Renilla control light, replicate 1 = 7.57e5; Renilla control light, replicate 2 = 5.70e5; Call = inactive

Additional reagents follow.
| predicted target | DRSC id | firefly reporter light, replicate 1 | firefly reporter light, replicate 2 | Renilla control light, replicate 1 | Renilla control light, replicate 2 | Call |
| --- | --- | --- | --- | --- | --- | --- |
| CG4041 | DRSC18339 | 2.17e5 | 3.44e5 | 3.04e6 | 1.24e6 | inactive |
| CG4041 | DRSC26992 | 4.77e5 | 3.52e5 | 9.65e5 | 5.07e5 | inactive |
| CG4041 | DRSC37046 | – | – | – | – | inactive |
| CR10032 | DRSC12499 | 67 | 6122 | – | – | inactive |
| CR10032 | DRSC28183 | 4.59e5 | 4.53e5 | 1.97e6 | 1.66e6 | inactive |
| CG18469 | DRSC21838 | 4.74e5 | 4.90e5 | 1.50e6 | 1.71e6 | inactive |
| CG31051 | DRSC15034 | 58622 | 68924 | 4.15e5 | 3.29e5 | inactive |
| eIF2Bepsilon | DRSC18769 | 92422 | 1.15e5 | 7.34e5 | 7.33e5 | inactive |
| CG42362 + CG42363 | DRSC04265 | 9.48e5 | 7.44e5 | 2.77e6 | 3.22e6 | inactive |
| Apc | DRSC14114 | 1.49e5 | 1.81e5 | 1.88e6 | 2.69e6 | inactive |
| CG32834 | DRSC21929 | 5.38e5 | 5.62e5 | 1.60e6 | 1.61e6 | inactive |
| CG32834 | DRSC28346 | 2.07e5 | 4.10e5 | 2.61e5 | 5.42e5 | inactive |
| Lcp1 | DRSC07455 | 3.62e5 | 4.43e5 | 1.95e6 | 1.88e6 | inactive |
| Syn2 | DRSC06902 | 1.05e5 | 1.23e5 | 2.14e6 | 2.14e6 | inactive |
| CG9451 | DRSC11074 | 2.36e5 | 1.32e5 | 2.03e6 | 1.64e6 | inactive |
| CG9451 | DRSC26098 | 2.29e5 | 2.93e5 | 7.24e5 | 5.63e5 | inactive |
| CG32204 | DRSC09574 | 84762 | 1.29e5 | 2.18e5 | 2.26e5 | inactive |
| CG32204 | DRSC23663 | 9.61e5 | 8.59e5 | 1.08e6 | 1.00e6 | inactive |
| Alp10 | DRSC09749 | 1.61e5 | 81910 | 1.99e6 | 1.34e6 | inactive |
| Alp10 | DRSC29230 | 5.17e5 | 4.63e5 | 1.41e6 | 1.29e6 | inactive |
| CG13170 | DRSC06298 | 1.19e5 | 77593 | 7.24e5 | 7.31e5 | inactive |
| CG13170 | DRSC25159 | 1.09e6 | 9.12e5 | 1.36e6 | 1.43e6 | inactive |
| Toll-6 | DRSC11304 | 2.37e5 | 1.67e5 | 2.03e6 | 2.02e6 | inactive |
| CG13678 | DRSC10036 | 4.42e5 | 3.96e5 | 3.56e6 | 4.09e6 | inactive |
